{"source": "PubChem BioAssay AID651664", "about": "(NMMLSC, 2012)", "note": "The whole screen tested about 1,800 compounds, of which fewer than 10 were called active.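 The calls were made as follows: active = inhibition of granule release above a set limit; inactive = the rest.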 The list shows a part of the results.", "data": [{"assay": "LAMP-1 surface externalization blockers in TALL-104 cells – cell-based, flow cytometry, validation set (AID 651664)", "settings": "TALL-104 LAMP-1 externalization, at 15.2 µM, active compounds read high, stimulated with thapsigargin and PMA", "values": [{"smiles": "C=CCn1c(SC(C)C(=O)NCCC2=CCCCC2)nc2ccccc2c1=O", "note": "(stereo not drawn)", "inhibition": "inactive: 2.9%"}, {"smiles": "CCCCOCCCNC(=O)N[C@H](C(=O)OC)C(C)C", "inhibition": "inactive: -2.9%"}, {"smiles": "Cc1ccc(C2C(C#N)=C(N)Oc3nc(-c4ccccc4)[nH]c32)o1", "note": "(stereo not drawn)", "inhibition": "inactive: -0.3%"}, {"smiles": "O=C(NNC(=S)NCc1ccco1)c1ccc(Cl)s1", "inhibition": "inactive: 1.1%"}, {"smiles": "Cc1ccccc1NC(=S)NN1CCN(C)CC1", "inhibition": "inactive: 1.1%"}, {"smiles": "CC(C)C[C@H](NC(=O)NCCc1ccc(Cl)cc1)C(=O)O", "inhibition": "inactive: -1.5%"}, {"smiles": "COc1ccc(CCNc2cc(-c3ccccc3)nc3ncnn23)cc1", "inhibition": "inactive: -2.4%"}, {"smiles": "COc1ccccc1NC(=O)c1c(C)oc2c1CCCC2", "inhibition": "inactive: -2%"}, {"smiles": "O=C(Nc1cc(Cl)ccc1Oc1ccccc1)c1cnccn1", "inhibition": "inactive: 1.1%"}, {"smiles": "Cc1ccc(C(=O)NC(=S)Nc2ccccc2C(F)(F)F)cc1C", "inhibition": "inactive: -2.7%"}, {"smiles": "CCOC(=O)c1[nH]c(C)c(C(=O)N2CCc3ccccc32)c1C", "inhibition": "inactive: 0.1%"}, {"smiles": "COC(=O)c1nn(-c2ccccc2)c(Cl)c1/C=N/OC(=O)c1ccc(Cl)c(Cl)c1", "inhibition": "inactive: -2.3%"}, {"smiles": "O=C(Cn1cccc1C(=O)c1ccccc1)NCCN1CCCCCC1", "inhibition": "inactive: -1.8%"}, {"smiles": "CCCC(=O)Nc1cccc2c1CCCC2", "inhibition": "inactive: 0%"}, {"smiles": "COc1ccc(C(NC(=O)c2ccc(-c3ccccc3)cc2)c2ccccc2)cc1", "note": "(stereo not drawn)", "inhibition": "inactive: -2.8%"}, {"smiles": "CCCC1C(c2ccccc2)C(C#N)(C#N)C2(C#N)CC1(N)NC2=O", "note": "(stereo not drawn)", "inhibition": "inactive: 0.6%"}, {"smiles": "Cn1nnc(NC(=O)c2ccc3ccccc3c2)n1", "inhibition": "inactive: -1.6%"}, {"smiles": "Nn1c(-c2cccs2)nc2sc3c(c2c1=O)CCCC3", "inhibition": "inactive: -2.9%"}, {"smiles": "CC1CN(Cc2ccc(Cl)cc2Cl)CC(C)O1", "note": "(stereo not drawn)", "inhibition": "inactive: -2.2%"}, {"smiles": "CCN(CC)c1ccc(CC(=O)NC(C)Cc2ccccc2)cc1", "note": "(stereo not drawn)", "inhibition": "inactive: -1%"}, {"smiles": "O=C(NC(=S)Nc1ccc(N2CCCCC2)c(Cl)c1)c1cccs1", "inhibition": "inactive: 0.9%"}, {"smiles": "CCc1nc(NCC2CCCO2)c2oc3ccccc3c2n1", "note": "(stereo not drawn)", "inhibition": "inactive: -1.9%"}, {"smiles": "O=C(CSc1nc2ccccc2[nH]1)N1CCN(c2ccc(F)cc2)CC1", "inhibition": "inactive: 5.2%"}, {"smiles": "Cc1c(NC(=O)N(C)C)c(=O)n(-c2ccccc2)n1C", "inhibition": "inactive: 0.9%"}, {"smiles": "CCCS(=O)(=O)N1CCC(C(=O)NCCCOC(C)C)CC1", "inhibition": "inactive: 3%"}, {"smiles": "O=C(O)COCCN1CCN(C(c2ccccc2)c2ccc(Cl)cc2)CC1", "note": "(stereo not drawn)", "inhibition": "inactive: 0.5%"}, {"smiles": "Cc1nn(C)cc1CNC(=O)CCC(=O)O", "inhibition": "inactive: 5.3%"}, {"smiles": "CCCn1c(N)c(C(=O)CSc2nnnn2-c2ccc(O)cc2)c(=O)n(C)c1=O", "inhibition": "inactive: 1.8%"}, {"smiles": "CC1CN=C(NC2CCCCC2C)S1", "note": "(stereo not drawn)", "inhibition": "inactive: 3.8%"}, {"smiles": "O=C(NCc1ccccc1)NC1(C(=O)N2CCN3CCCC3C2)CCCCC1", "note": "(stereo not drawn)", "inhibition": "inactive: 2.3%"}, {"smiles": "c1ccc2c(c1)[nH]c1c(NCC3CCCO3)ncnc12", "note": "(stereo not drawn)", "inhibition": "inactive: 0.1%"}, {"smiles": "CCOC(=O)C1CCN(C(=O)CN(c2cc(OC)ccc2OC)S(=O)(=O)c2ccccc2)CC1", "inhibition": "inactive: -2.6%"}, {"smiles": "CCCOC(=O)c1ccc(NC(=O)C2C3C=CC(O3)C2C(=O)O)cc1", "note": "(stereo not drawn)", "inhibition": "inactive: 5.5%"}, {"smiles": "Cc1nn(-c2ccccc2)c(C)c1C(=O)OCC(=O)N1c2ccccc2NC(=O)C1(C)C", "inhibition": "inactive: -1%"}, {"smiles": "COc1ccc(NC(=O)c2cccc(S(=O)(=O)N3CCOCC3)c2)cn1", "inhibition": "inactive: 1.5%"}, {"smiles": "O=C(c1ccc(Cl)cc1)c1c[nH]c(C(=O)C(Cl)(Cl)Cl)c1", "inhibition": "inactive: 5.7%"}, {"smiles": "COC(=O)c1ccc(/C=C(\\C#N)c2nc3ccccc3s2)cc1", "inhibition": "inactive: -0.9%"}, {"smiles": "Cc1ccc(C(=O)Nc2cccnc2)cc1NC(=O)c1ccco1", "inhibition": "inactive: 2.5%"}, {"smiles": "COc1ccc(/C=C/c2nc3sc4c(c3c(=O)o2)CCC4)cc1", "inhibition": "inactive: -1.7%"}, {"smiles": "CCOC(=O)c1c(C(C)(C)C)oc2ccc(O)cc12", "inhibition": "inactive: 1.3%"}, {"smiles": "Cc1cccc2nc(C(F)(F)F)nc(=O)n12", "inhibition": "inactive: 1.8%"}, {"smiles": "Nc1nc(-c2ccco2)nn1C(=O)c1ccccc1", "inhibition": "inactive: 2.6%"}, {"smiles": "CCS(=O)(=O)N1CCCC(C(=O)NC2CCCCC2C)C1", "note": "(stereo not drawn)", "inhibition": "inactive: 0.3%"}, {"smiles": "O=C(Oc1ccccc1)N1CCN(c2ccc(F)cc2)CC1", "inhibition": "inactive: 6.6%"}, {"smiles": "COCc1nnc(SCC(=O)Nc2cccc(Cl)c2C)n1-c1ccccc1", "inhibition": "inactive: -0.4%"}, {"smiles": "Cn1c(Sc2ccc(Br)cc2)c(C=O)c2ccccc21", "inhibition": "inactive: -0.4%"}, {"smiles": "O=C1c2cccc3cccc(c23)C(=O)N1OS(=O)(=O)c1ccccc1", "inhibition": "inactive: 2.1%"}, {"smiles": "Cn1ccnc1SCC(=O)Nc1ccc(Oc2ccccc2)cc1", "inhibition": "inactive: -4.5%"}, {"smiles": "Cc1ccc(Sc2ccc(/C=N/O)cc2[N+](=O)[O-])cc1", "inhibition": "inactive: -1.1%"}, {"smiles": "CCOc1ccc(NC2=NC(C)(C)N=C(N)N2)cc1", "inhibition": "inactive: 0.8%"}, {"smiles": "O=P(Cc1nnco1)(c1ccccc1)c1ccccc1", "inhibition": "inactive: -1.1%"}, {"smiles": "O=C1CC(SC(=Nc2ccccc2)Nc2ccccc2)C(=O)N1c1cccc2ccccc12", "note": "(stereo not drawn)", "inhibition": "inactive: -0.2%"}, {"smiles": "COCc1ccccc1Cn1cnc2c1c(=O)n(C)c(=O)n2C", "inhibition": "inactive: -1.3%"}, {"smiles": "Cn1c(NCCN2CCOCC2)nc2c1c(=O)n(Cc1cccc(Cl)c1)c(=O)n2C", "inhibition": "inactive: -3.6%"}, {"smiles": "Cc1ccc(CN2C(=O)CCC2C(=O)NCCCN2CCCCC2C)cc1", "note": "(stereo not drawn)", "inhibition": "inactive: -1%"}, {"smiles": "Cc1cc(=O)c2cccc(Br)c2[nH]1", "inhibition": "inactive: 2.4%"}, {"smiles": "Cc1cc(NC(=O)COc2ncnc3sc(C)c(C)c23)no1", "inhibition": "inactive: 1.9%"}, {"smiles": "Cc1nn(C(=O)c2ccco2)c(C)c1Br", "inhibition": "inactive: -2.6%"}, {"smiles": "O=C(O)CSCc1cn2cc(Cl)ccc2n1", "inhibition": "inactive: 0.9%"}, {"smiles": "O=C(COc1ccccc1O)N1CCN(C(=O)c2ccco2)CC1", "inhibition": "inactive: 0.9%"}, {"smiles": "O=C(Nc1ccccc1)c1ccc(CSc2ncccn2)cc1", "inhibition": "inactive: -1.2%"}, {"smiles": "COc1ccc(CN2CCOCC2)cc1OC", "inhibition": "inactive: -1.3%"}, {"smiles": "COc1ccccc1NC(=O)c1cc2ccccc2o/c1=N\\O", "inhibition": "inactive: -3.5%"}, {"smiles": "COC(=O)Cc1cc(=O)n2[nH]c(C)c(-c3ccccc3)c2n1", "inhibition": "inactive: 2.4%"}, {"smiles": "CCOc1nc(N2CCCCC2)nc(-n2cc(-c3ccccc3)nn2)n1", "inhibition": "inactive: -1.2%"}, {"smiles": "Cc1nc2cc(S(=O)(=O)N3CCC(C(=O)O)CC3)ccc2n1C1CCCC1", "inhibition": "inactive: -3.7%"}, {"smiles": "Cn1c(=O)[nH]c(=O)c2c1nc(N1CCNCC1)n2CCOc1ccccc1", "inhibition": "inactive: -0.5%"}, {"smiles": "Cc1nnc(NC(=O)C2c3ccccc3Oc3ccccc32)s1", "inhibition": "inactive: 5.8%"}, {"smiles": "CCOC(=O)/C(C#N)=C/c1cc(C)n(-c2ccccc2)c1C", "inhibition": "inactive: -2.9%"}, {"smiles": "Cn1c(-c2ccc(-c3ccccc3)cc2)c[nH]c1=S", "inhibition": "inactive: -3.2%"}, {"smiles": "NC(=S)N/N=C/c1ccccc1OCc1cccc(Cl)c1", "inhibition": "inactive: 0%"}, {"smiles": "c1nnc(NC2=NCCC2)s1", "inhibition": "inactive: -1.3%"}, {"smiles": "O=C(c1ccc(=O)oc1)N1CCCc2ccccc21", "inhibition": "inactive: -0.6%"}, {"smiles": "CN(C(=O)CSc1nnc(Cc2ccccc2F)n1N)C1CCS(=O)(=O)C1", "note": "(stereo not drawn)", "inhibition": "inactive: -0.9%"}, {"smiles": "O=C(/C=C/Nc1ccc(F)cc1)c1ccco1", "inhibition": "inactive: -3.8%"}, {"smiles": "Cc1csc2nc(CNC(=O)c3cccc(C(F)(F)F)c3)cn12", "inhibition": "inactive: 17.8%"}, {"smiles": "CC(C)(C)C(=O)c1cnc(Nc2ccccc2)s1", "inhibition": "inactive: 0.7%"}, {"smiles": "CCc1nnc(SCC(=O)Nc2ccc(C(C)=O)cc2)nc1CC", "inhibition": "inactive: -1%"}, {"smiles": "O=C(O)c1cccc(CN2C(=O)CSC2=O)c1", "inhibition": "inactive: -3.2%"}, {"smiles": "O=C(CCN1CCc2ccccc2C(O)(c2ccccc2)C1)c1ccc2c(c1)OCCO2", "note": "(stereo not drawn)", "inhibition": "inactive: 2.1%"}, {"smiles": "CC1(C)Cc2c(C#N)c(SCc3ccccc3)nc(N3CCOCC3)c2CO1", "inhibition": "inactive: 1.1%"}, {"smiles": "c1ccc(Cn2c(SCc3cn4cccnc4n3)nnc2-c2ccco2)cc1", "inhibition": "inactive: 1%"}, {"smiles": "O=C(CN1C(=O)NC2(CCCc3ccccc32)C1=O)N1CCc2ccccc2C1", "note": "(stereo not drawn)", "inhibition": "inactive: -2.2%"}, {"smiles": "COC(=O)c1ccc(C(=O)OC)c(NC(=O)CSc2nnc(-c3ccccc3Cl)o2)c1", "inhibition": "inactive: 7%"}, {"smiles": "Clc1ccccc1Cn1nnc2c(N3CCOCC3)nc(C3CC3)nc21", "inhibition": "inactive: -4%"}, {"smiles": "CC(C)c1nccn1S(=O)(=O)c1cc(Cl)ccc1Cl", "inhibition": "inactive: -3.5%"}, {"smiles": "CC(C)CN(C(=O)CSc1nnc2ccccn12)c1c(N)n(CC(C)C)c(=O)[nH]c1=O", "inhibition": "inactive: -2.6%"}, {"smiles": "COc1cc2c(C(=O)N3CCN(c4ccccc4)CC3)c(C)oc2cc1Br", "inhibition": "inactive: 0.3%"}, {"smiles": "CC(C)CC(=O)Nc1ccc(C(=O)Cn2nc(C(=O)O)c3ccccc3c2=O)cc1", "inhibition": "inactive: -3.3%"}, {"smiles": "O=C(c1ccc(Cl)cc1)C(Cn1cncn1)C(Sc1ccccc1)c1ccccc1", "note": "(stereo not drawn)", "inhibition": "inactive: 0.6%"}, {"smiles": "Cc1nc(N)c(C#N)c(-c2ccccc2Cl)c1C", "inhibition": "inactive: -3%"}, {"smiles": "COc1ccc2c(c1OC)C(=O)OC2Nc1nc(-c2ccccc2)cs1", "note": "(stereo not drawn)", "inhibition": "inactive: -1.5%"}, {"smiles": "Cc1nc2ccc(NC(=O)c3sccc3C)cc2s1", "inhibition": "inactive: 0.1%"}, {"smiles": "O=C(c1ccco1)N(Cc1cc2ccccc2[nH]c1=O)C1CCCCC1", "inhibition": "inactive: -2.8%"}, {"smiles": "O=C(COC(=O)c1ccccn1)Nc1c(Cl)cccc1Cl", "inhibition": "inactive: 0.4%"}, {"smiles": "CC1(C)CC(=O)c2c(nc3ccccc3c2N)C1", "inhibition": "inactive: -1.6%"}, {"smiles": "Nn1c(SCC(=O)N2CCc3ccccc3C2)nnc1-c1cccs1", "inhibition": "inactive: 0.7%"}, {"smiles": "Cn1nc(-c2ccccc2)c2nc3ccccc3nc21", "inhibition": "inactive: 1.8%"}, {"smiles": "O=C(NNS(=O)(=O)c1ccccc1)c1ccncc1", "inhibition": "inactive: -3.7%"}, {"smiles": "CC(CN1CCCCC1)OC(=O)c1ccccc1Cl", "note": "(stereo not drawn)", "inhibition": "inactive: 1.6%"}, {"smiles": "CCC(C(=O)N1CCc2ccccc2C1)n1nc(C)n2c(cc3occc32)c1=O", "note": "(stereo not drawn)", "inhibition": "inactive: 11.8%"}, {"smiles": "CCOc1ccc2nc(NC(=O)c3ccoc3C)sc2c1", "inhibition": "inactive: -3.2%"}, {"smiles": "Cc1nn(CCC(=O)O)c2nc(-c3cccnc3)cc(C(F)(F)F)c12", "inhibition": "inactive: -3.2%"}]}]}
